# Results as given in publication PMC8862343.
# Sequences of proteins named here, by UniProt entry; tags and fusion partners are left off. Residues count along the entry.
# UniProt P17301, residues 30-1181: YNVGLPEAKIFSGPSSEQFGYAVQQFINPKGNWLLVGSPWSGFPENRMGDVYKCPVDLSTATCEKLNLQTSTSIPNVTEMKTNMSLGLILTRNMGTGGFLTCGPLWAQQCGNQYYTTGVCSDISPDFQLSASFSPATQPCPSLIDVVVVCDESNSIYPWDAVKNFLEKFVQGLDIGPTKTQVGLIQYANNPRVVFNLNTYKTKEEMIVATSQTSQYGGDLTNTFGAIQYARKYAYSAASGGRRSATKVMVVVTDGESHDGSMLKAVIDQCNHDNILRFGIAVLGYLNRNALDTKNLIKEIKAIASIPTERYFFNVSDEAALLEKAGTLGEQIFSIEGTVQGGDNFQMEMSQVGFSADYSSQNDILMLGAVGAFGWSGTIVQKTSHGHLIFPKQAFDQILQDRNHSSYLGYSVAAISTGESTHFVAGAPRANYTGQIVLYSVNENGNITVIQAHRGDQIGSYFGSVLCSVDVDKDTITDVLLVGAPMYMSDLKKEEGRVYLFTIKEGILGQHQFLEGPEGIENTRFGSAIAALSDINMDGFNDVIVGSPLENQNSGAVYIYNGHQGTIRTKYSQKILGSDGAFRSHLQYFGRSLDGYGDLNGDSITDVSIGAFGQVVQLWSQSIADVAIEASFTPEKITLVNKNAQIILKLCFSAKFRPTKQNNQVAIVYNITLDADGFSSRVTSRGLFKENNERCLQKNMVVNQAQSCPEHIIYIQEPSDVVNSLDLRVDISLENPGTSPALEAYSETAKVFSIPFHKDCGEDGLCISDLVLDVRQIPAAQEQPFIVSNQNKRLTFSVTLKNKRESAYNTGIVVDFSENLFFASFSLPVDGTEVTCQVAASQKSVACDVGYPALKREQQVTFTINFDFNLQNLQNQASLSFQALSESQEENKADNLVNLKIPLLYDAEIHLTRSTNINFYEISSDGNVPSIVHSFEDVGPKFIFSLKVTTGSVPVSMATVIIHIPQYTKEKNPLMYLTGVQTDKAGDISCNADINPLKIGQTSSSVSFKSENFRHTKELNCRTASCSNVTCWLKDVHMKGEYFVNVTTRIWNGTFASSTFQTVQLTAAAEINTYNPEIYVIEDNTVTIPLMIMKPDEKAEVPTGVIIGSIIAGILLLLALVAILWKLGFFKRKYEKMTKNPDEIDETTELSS
# Results are given in words; binding and its absence hold for the method and conditions named. In cells and extracts the contact can be indirect. Some binding calls cover weakened binding; strength is not graded here.
# B1: Transcription factor CP2 (protein, UniProt Q12800 1-502)
# chain: MAWALKLPLADEVIESGLVQDFDASLSGIGQELGAGAYSMSDVLALPIFKQEESSLPPDNENKILPFQYVLCAATSPAVKLHDETLTYLNQGQSYEIRMLDNRKLGELPEINGKLVKSIFRVVFHDRRLQYTEHQQLEGWRWNRPGDRILDIDIPMSVGIIDPRANPTQLNTVEFLWDPAKRTSVFIQVHCISTEFTMRKHGGEKGVPFRVQIDTFKENENGEYTEHLHSASCQIKVFKPKGADRKQKTDREKMEKRTPHEKEKYQPSYETTILTECSPWPEITYVNNSPSPGFNSSHSSFSLGEGNGSPNHQPEPPPPVTDNLLPTTTPQEAQQWLHRNRFSTFTRLFTNFSGADLLKLTRDDVIQICGPADGIRLFNALKGRMVRPRLTIYVCQESLQLREQQQQQQQQQQKHEDGDSNGTFFVYHAIYLEELTAVELTEKIAQLFSISPCQISQIYKQGPTGIHVLISDEMIQNFQEEACFILDTMKAETNDSYHIILK
# Target: Integrin alpha 2 (human (endogenous in PANC-1 and AsPC-1)) (UniProt P17301)
# Test: co-IP; RIPA lysates of PANC-1 and AsPC-1 cells, incubated overnight at 4 °C with agarose beads having antibodies; Western blot
binder,measurement,value
B1,binding,binds
